Results taken from US20230212306A1 (Daiichi Sankyo, published 2023).
No constants are given. Whether binding was seen depends on the method and setting. Some results given as binding are weak or reduced against the parent protein; the word gives no strength. Tags and fused reporters may be left off the sequences shown.

Key:
[1] = biological target: T1, monkey TLR7-Flag, expressed in HEK293 cells (monkey); experiment: flow cytometry, FIG. 27, antigen monkey TLR7
T1 sequence: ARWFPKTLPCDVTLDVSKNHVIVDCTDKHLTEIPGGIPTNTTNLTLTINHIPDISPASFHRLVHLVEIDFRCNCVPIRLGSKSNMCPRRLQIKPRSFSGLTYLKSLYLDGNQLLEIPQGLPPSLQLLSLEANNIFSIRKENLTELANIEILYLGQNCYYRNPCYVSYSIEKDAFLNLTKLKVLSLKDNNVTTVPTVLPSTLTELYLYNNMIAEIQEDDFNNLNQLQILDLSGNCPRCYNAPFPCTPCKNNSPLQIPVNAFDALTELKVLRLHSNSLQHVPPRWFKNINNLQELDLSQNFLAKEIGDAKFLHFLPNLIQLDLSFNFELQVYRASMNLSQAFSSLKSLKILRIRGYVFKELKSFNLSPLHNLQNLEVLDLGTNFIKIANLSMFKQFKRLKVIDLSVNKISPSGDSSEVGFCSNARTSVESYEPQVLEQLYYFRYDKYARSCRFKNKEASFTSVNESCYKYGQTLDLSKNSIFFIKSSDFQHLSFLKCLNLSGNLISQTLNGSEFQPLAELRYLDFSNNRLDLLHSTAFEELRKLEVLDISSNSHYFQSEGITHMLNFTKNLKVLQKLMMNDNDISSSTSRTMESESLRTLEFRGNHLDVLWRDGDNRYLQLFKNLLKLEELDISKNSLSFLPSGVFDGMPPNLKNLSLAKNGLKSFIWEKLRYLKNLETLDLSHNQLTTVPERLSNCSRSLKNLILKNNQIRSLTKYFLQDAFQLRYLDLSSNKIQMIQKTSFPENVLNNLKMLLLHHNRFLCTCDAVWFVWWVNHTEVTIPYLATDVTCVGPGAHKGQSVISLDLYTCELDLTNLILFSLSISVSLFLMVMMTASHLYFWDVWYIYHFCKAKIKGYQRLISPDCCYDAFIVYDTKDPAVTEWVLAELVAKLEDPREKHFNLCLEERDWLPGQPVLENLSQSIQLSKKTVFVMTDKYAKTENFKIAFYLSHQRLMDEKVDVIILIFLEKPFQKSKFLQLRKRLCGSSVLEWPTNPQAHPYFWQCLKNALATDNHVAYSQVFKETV

[2] = biological target: T1, monkey TLR7-Flag, expressed in HEK293 cells (monkey); experiment: flow cytometry on fixed and permeabilised HEK293 cells expressing monkey TLR7-Flag

B1: huAT01_H3L2_IgG1LALA antibody (antibody, V domains shown)
VH: QVQLVQSGAEVKKPGASVKVSCKASGYTFTNNWLHWVRQAPGQGLEWMGDIYPSNGRTNYAQKFQGRVTLTVDKSTSTAYMELSSLRSEDTAVYFCARERGYFDYWGQGTLVTVSS
VL: DIQMTQSPSSLSASVGDRVTITCKASQDINKYIAWYQQKPGKAPKLLIHYTSTLQPGIPSRFSGSGSGRDYTLTISSLQPEDFATYYCLQYDYLLTFGQGTKVEIKR
notes: Humanized AT01; heavy huAT01_H3_IgG1LALA, light huAT01_L2
With B1 the binding [1] was “binds” and the binding [2] was “binds”.
